Hit rate of the full screen: of about 320,000 compounds, about 22,000 (6.9%) were called active. This list was built around the results that the source calls inconclusive (neither active nor inactive); the mix of calls is not that of the screen. The call rests on the fitted dose curve; in most records, active means well fitted inhibition curve with a large enough effect; inconclusive means small, poorly fitted or top-dose-only effect, or another doubt; inactive means no such curve, though single readings can be large or run the other way. A potency beside an inconclusive call is a rough fit, not a confirmed value.
Experiment: Primary qHTS for delayed death inhibitors of the malarial parasite plastid, 96 hour incubation
Settings: P. falciparum luciferase reporter growth; series mostly up to 28.7 µM; activity change, negative = inhibition: at the top concentration
Procedure, shortened: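 Cell-based qHTS: luciferase-tagged P. falciparum in erythrocytes (2% hematocrit, 0.05% parasitemia final) incubated with compounds for 96 hours, 37 C, 5% CO2; luciferase detection reagent then added and luminescence measured.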
With `CCOC(=O)N1CCN(S(=O)(=O)c2ccc3c(c2)CC(C)N3C(=O)C2CC2)CC1` (centres undefined) the Potency was inconclusive: 11.7 µM [inhibitor, partial curve].
For `CC(=O)N1CCN(c2ccc([N+](=O)[O-])cc2)CC1`, the “activity change, negative = inhibition” value was inactive: 179%.
In the case of `Cc1ccc(-c2csc(/C(C#N)=C(\O)CCl)n2)cc1`, the “activity change, negative = inhibition” value is reported as inactive: 27.1%.
In the case of `COc1ccc(NC(=O)c2ccco2)cc1NC(=O)c1ccc(Br)o1`, the Potency is reported as inconclusive: 0.37 µM [inhibitor, partial curve, poor fit].
For `COC(=O)c1ccc(C(C(=O)NC2CCCCC2)N(Cc2ccccc2)C(=O)Cc2cccs2)cc1` (centres undefined), the “activity change, negative = inhibition” value was inactive: -27.2%.
For `CCOC(=O)c1cn2nc(-c3ccc(OCC)cc3)cc2nc1C1CCN(C(=O)OC(C)(C)C)CC1`, the Potency was inconclusive: 10.4 µM [inhibitor, single point].
In the case of `FC(F)(F)c1cccc(N2Cc3ccccc3C2)c1`, the “activity change, negative = inhibition” value is reported as inactive: 45.8%.
In the case of `Cc1cc(NC(=O)C2C3C(=O)N(Cc4ccc(Cl)cc4)C(C(=O)NC(C)(C)C)C34C=CC2(C)O4)no1` (centres undefined), the “activity change, negative = inhibition” value is reported as inactive: -16.4%.
With `Cc1nc(SCC(=O)NCCc2ccccc2)nc(C)c1C` the “activity change, negative = inhibition” value was inactive: -8.99%.
For `COc1ccc(OC)c(-c2csc(N(CC3CCCO3)C(=O)Cc3ccccc3)n2)c1` (centres undefined), the Potency was active: 1.85 µM.
In the case of `Nc1ccc(C(=O)n2c3ccccc3c3ccccc32)cc1`, the Potency is reported as active: 2.33 µM.
In the case of `CCC(C)n1c(-c2cc(OC)c(OC)c(OC)c2)nc2nc3ccccc3nc21` (centres undefined), the Potency is reported as active: 5.86 µM.
For `Cc1cc(C(C)(C)C)oc1C(=O)Nc1ccc(CC(=O)O)cc1`, the Potency was inconclusive: 18.5 µM [inhibitor, single point].
For `O=C(NCc1nc2ccccc2[nH]1)C1=C[C@H](C2CC2)C[C@H](OCc2ccc(CO)cc2)O1`, the Potency was inconclusive: 18.5 µM [inhibitor, single point].
In the case of `CCOC(=O)c1nn(-c2ccccc2)c2nc(-c3ccc(OC)cc3)c(C#N)c(=O)n12`, the Potency is reported as inconclusive: 18.5 µM [inhibitor, single point].
With `CCC(=O)N1CCN=C1SCc1ccc(F)cc1` the Potency was inconclusive: 13.1 µM [inhibitor, single point].
In the case of `COc1ccc(C2=NN3C(=O)c4c(ccc(OC)c4OC)C3C2)cc1` (centres undefined), the “activity change, negative = inhibition” value is reported as inactive: -15.8%.
In the case of `O=C(CNc1ccc(Br)cc1)c1ccc(Br)s1`, the “activity change, negative = inhibition” value is reported as inactive: 29.9%.
For `O=C(NCCCCNC(=O)C(F)(F)F)C(F)(F)F`, the Potency was inconclusive: 10.4 µM [inhibitor, single point].
With `Cc1ccc(NC(=O)CCSc2nnc(-c3ccco3)o2)cc1` the Potency was inconclusive: 11.7 µM [inhibitor, single point].
In the case of `Cc1ccc(C)c(NC(=O)c2cnccn2)c1`, the Potency is reported as inconclusive: 11.7 µM [inhibitor, single point].
With `CC(=O)N1CCN=C1SCc1ccc(Cl)cc1` the “activity change, negative = inhibition” value was inactive: -13.5%.
With `Cc1ccccc1OCCNCC(C)O` (centres undefined) the Potency was active: 13.1 µM.
With `CCCCCCC(=O)Nc1nc(C)c(-c2csc(Nc3ccccc3OC)n2)s1` the Potency was active: 3.7 µM.
With `O=C(Cc1ccc([N+](=O)[O-])cc1)Nc1cccnc1` the “activity change, negative = inhibition” value was inactive: 7.55%.
In the case of `CC(=O)N1CCC(C(=O)Nc2ccccc2)(N(Cc2ccccc2)C(=O)c2cccnc2)CC1`, the Potency is reported as inconclusive: 9.28 µM [inhibitor, partial curve, poor fit].
With `COc1ccccc1N1CCN(S(=O)(=O)c2ccc3c(c2)NC(=O)CS3)CC1` the Potency was active: 11.7 µM.
With `CCc1nnc(NC(=O)C2CCCN2C(=O)Nc2ccc(C)cc2)s1` (centres undefined) the “activity change, negative = inhibition” value was inactive: 44.6%.
For `O=C(CCCNS(=O)(=O)c1cccc2nsnc12)NCc1ccc(Cl)cc1`, the “activity change, negative = inhibition” value was inactive: 287%.
In the case of `CCc1ccc(S(=O)(=O)/N=C2/C=C(Sc3ncn[nH]3)C(=O)c3ccccc32)cc1`, the Potency is reported as active: 4.15 µM.
For `CCN(CC)CCNC(=O)c1ccc(NC(=O)COc2ccc3c(c2)CCC3)cc1`, the Potency was active: 14.7 µM.
For `CCCCC(=O)Nc1ccc(C(=O)NNC(=S)NC(=O)c2ccccc2[N+](=O)[O-])cc1`, the Potency was inconclusive: 0.0029 µM [inhibitor, partial curve, poor fit].
With `Cc1ccc(F)c([C@H]2[C@H]3C=CC[C@@H](C)[C@@H]3C(=O)N2Cc2ccccc2)c1` the Potency was inconclusive: 10.4 µM [inhibitor, single point].
With `CS(=O)(=O)N(CC(=O)Nc1ccc(CC#N)cc1)c1ccc(C23CC4CC(CC(C4)C2)C3)cc1` the Potency was inconclusive: 18.5 µM [inhibitor, single point].
In the case of `COC(=O)c1sc2nc(N3CCCCC3)c3c(c2c1N)CCCC3`, the Potency is reported as inconclusive: 18.5 µM [inhibitor, single point].
For `O=C(Oc1ccc2c(c1)O/C(=C\c1ccncc1)C2=O)c1cccs1`, the Potency was inconclusive: 20.8 µM [inhibitor, single point].
With `CCN1CCN(C(c2cccs2)C(C)NC(=S)Nc2cccc(C)c2C)CC1` (centres undefined) the Potency was inconclusive: 11.7 µM [inhibitor, partial curve, poor fit].
In the case of `COCCn1c(SCC(=O)N2CCCCCC2)nc2c([nH]c3ccccc32)c1=O`, the Potency is reported as inconclusive: 2.94 µM [inhibitor, partial curve].
With `O=Cc1cn(CCC(=O)O)nc1-c1cccc2ccccc12` the Potency was inconclusive: 18.5 µM [inhibitor, single point].
For `CCCCCc1c(O)nc(SCC(=O)NCC2CCCO2)[nH]c1=O` (centres undefined), the Potency was active: 0.465 µM.
With `CN(C)[C@H]1C(=O)C(C(N)=O)=C(O)[C@]2(O)C(=O)C3=C(O)c4c(O)cccc4[C@@](C)(O)[C@H]3C[C@@H]12` the Potency was active: 0.721 µM.
In the case of `O=C(CC1S/C(=N/N=C/c2cccs2)NC1=O)Nc1ccc(Cl)c(Cl)c1` (centres undefined), the Potency is reported as inconclusive: 4.15 µM [inhibitor, full curve, poor fit].
In the case of `COc1ccc(CN(C)C(=O)c2ccccc2Sc2ccccc2C#N)cc1OC`, the Potency is reported as inconclusive: 18.5 µM [inhibitor, single point].
For `O=C(N/N=C\c1ccc2c(c1)OCO2)c1ccc(Cn2cc(Br)c([N+](=O)[O-])n2)o1`, the Potency was inconclusive: 4.15 µM [inhibitor, partial curve, poor fit].
With `Cc1ccc(NC(=O)C(=O)NCC2CCCO2)cc1` (centres undefined) the Potency was inconclusive: 18.5 µM [inhibitor, single point].
With `CCCC(=O)C1=C(O)C(C(=O)OC)C(C)(C)CC1=Nc1ccc(N)cc1` (centres undefined) the Potency was inconclusive: 18.5 µM [inhibitor, single point].
With `O=C(CNC(=O)c1ccco1)OCC(=O)c1ccc2ccccc2c1` the Potency was inconclusive: 11.7 µM [inhibitor, single point].
In the case of `COc1ccccc1N1CCN(C(=O)c2ccc(N(C)S(=O)(=O)c3ccccc3)cc2)CC1`, the “activity change, negative = inhibition” value is reported as inactive: -18.8%.
For `CCOC(=O)N1CCC(NC(=O)c2cc(C(=O)Nc3ccc(F)cc3F)ccc2CO)CC1`, the Potency was inconclusive: 10.4 µM [inhibitor, single point].
For `CCOc1ccc(-c2nnc(SCC(=O)Nc3cc(C)on3)o2)cc1`, the Potency was inconclusive: 11.7 µM [inhibitor, partial curve, poor fit].
With `COC(=O)[C@@]12CCCN1[C@H](c1ccc(-c3ccc(F)cc3)cc1)[C@H]1C(=O)N(C)C(=O)[C@H]12` the Potency was inconclusive: 4.15 µM [inhibitor, single point].
With `CC(C)CCNC(=O)C(=O)NCc1ccccc1` the Potency was inconclusive: 4.15 µM [inhibitor, partial curve, poor fit].
In the case of `CCOc1ccccc1NC(=S)N1CCCc2ccccc21`, the Potency is reported as inconclusive: 9.28 µM [inhibitor, single point].
In the case of `CCOC(=O)c1ccc(S(=O)(=O)N2CCN(C(=O)C3CSC4(C)CCC(=O)N34)CC2)cc1` (centres undefined), the Potency is reported as inconclusive: 10.4 µM [inhibitor, partial curve, poor fit].
For `CC(C)c1cccc(C(C)C)c1OC(=O)[C@H]1OC(c2ccc(Br)cc2)=C[C@@H]1c1ccc(Br)cc1`, the Potency was inconclusive: 16.5 µM [inhibitor, single point].
For `Cc1noc(C)c1CSCC(=O)Nc1ccc(Br)cc1Cl`, the “activity change, negative = inhibition” value was inactive: 0.407%.
For `Cc1cc(NS(=O)(=O)c2ccc(NC(=O)COc3ccc(Br)cc3)cc2)nc(C)n1`, the “activity change, negative = inhibition” value was inactive: -10.7%.
In the case of `Cc1cccc(-c2cccc(NC(=O)C3CCCN(C(=O)c4ocnc4C)C3)c2)c1` (centres undefined), the Potency is reported as inconclusive: 4.15 µM [inhibitor, partial curve].
In the case of `CCCCCC(=O)Nc1nc(C)c(-c2csc(Nc3cc(Cl)ccc3C)n2)s1`, the Potency is reported as inconclusive: 3.7 µM [inhibitor, full curve, poor fit].
In the case of `COC(=O)c1ccc(NC(=O)CSc2nc(=O)cc(N)n2-c2ccccc2)cc1`, the Potency is reported as inconclusive: 0.415 µM [inhibitor, partial curve, poor fit].
With `COc1ccc(-c2nnc(-c3ccc(Br)o3)o2)cc1OC` the Potency was inconclusive: 0.928 µM [inhibitor, partial curve, poor fit].
In the case of `CCN(CC)S(=O)(=O)c1cccc(-c2nnc(SCC(N)=O)n2C)c1`, the Potency is reported as inconclusive: 18.5 µM [inhibitor, single point].
In the case of `Cc1ccc(NC(=O)CSc2nc3nc(C)cc(C)c3c(=O)[nH]2)cc1`, the Potency is reported as active: 2.33 µM.
For `O=C(Cn1nnnc1CN1CCOCC1)N1CCC(c2cccc(Cl)c2)C1` (centres undefined), the “activity change, negative = inhibition” value was inactive: 20.2%.
With `CCC(C)Sc1nc2c(c(=O)[nH]1)C(c1cccs1)C1=C(CCCC1=O)N2` (centres undefined) the Potency was inconclusive: 18.5 µM [inhibitor, single point].
In the case of `Cc1ccc(NC(=O)c2ccc(C)cc2)cc1`, the “activity change, negative = inhibition” value is reported as inactive: 163%.
For `COc1ccc(NC(=O)CSc2nc3ccccc3c(=O)n2CCCN2CCC(C)CC2)c(OC)c1`, the “activity change, negative = inhibition” value was inactive: -11.6%.
In the case of `COc1cccc(CNC(=O)c2cccc(S(=O)(=O)N3CCN(c4ccc(F)cc4)CC3)c2)c1`, the Potency is reported as inconclusive: 20.8 µM [inhibitor, partial curve, poor fit].
For `Cc1cccc(NC(=O)c2n[nH]c([N+](=O)[O-])c2Br)c1C`, the Potency was inconclusive: 3.7 µM [inhibitor, single point].
On the % scale 0 is the no-effect control and ±100 the full control effect; potency means the concentration at half of the fitted maximal effect.
